Experimental findings from patent US20260167734A1 are described below.

The chains behind the UniProt entries cited, without tags or fusion partners. Where a name states a change or a piece, a line headed by the entry shows the natural chain unless it says otherwise.
UniProt P48023: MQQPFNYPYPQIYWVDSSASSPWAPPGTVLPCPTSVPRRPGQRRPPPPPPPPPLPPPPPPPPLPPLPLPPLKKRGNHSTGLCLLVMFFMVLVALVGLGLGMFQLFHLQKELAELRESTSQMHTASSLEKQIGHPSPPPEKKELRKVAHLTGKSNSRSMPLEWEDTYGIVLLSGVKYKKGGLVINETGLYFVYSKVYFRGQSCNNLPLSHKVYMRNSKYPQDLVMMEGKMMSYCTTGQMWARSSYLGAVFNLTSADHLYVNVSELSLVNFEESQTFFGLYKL

For test [1], the target named is soluble human Fas ligand (FasL) (human) (UniProt P48023). As to the kind of experiment: ELISA on soluble FasL. A general note: ELISA stands for enzyme-linked immunosorbent assay.
The target is the same in test [2]. Description: SPR, BIACORE 8K, multi-dose. Background: In SPR one partner is held on a chip, and binding of the other changes the refractive index at the surface.

No constants are given. Whether binding was seen depends on the method and setting. Some entries that bind do so weakly or less than the wild type.

B1: M3T01 (antibody, V domains shown)
VH: QVQLVESGGGVVQPGRSLRLSCAASGFTFSTYGIHWVRQAPGKGLEWVAVIWYDGSDKFYADSVKGRFTISRDNSKNTLYLQMNSLRAEDTAVYYCARDRDNWNYFDYWGQGTLVTVSS
VL: DIQMTQSPSTLSASVGDRVTITCRASQSISSWLAWYQQKPGKAPKFLIYQASSLESGVPSRFSGSGSGTEFTLTISSLQPDDFATYYCQQYNSYITFGQGTRLEIKR
With B1, the binding entry in test [1] and in test [2] was “binds” throughout.
